# Assay results reported in publication PMC7950127.
# Amino acid sequences for entries named in this document (tags omitted). A change or cut given only in a name is not applied to a line headed by its entry. Residues count along the entry.
# UniProt Q83BS7: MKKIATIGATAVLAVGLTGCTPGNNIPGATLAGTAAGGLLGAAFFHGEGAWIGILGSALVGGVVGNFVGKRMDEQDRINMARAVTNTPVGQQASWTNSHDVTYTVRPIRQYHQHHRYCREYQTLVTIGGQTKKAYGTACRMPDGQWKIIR
# UniProt P31040, residues 43-664: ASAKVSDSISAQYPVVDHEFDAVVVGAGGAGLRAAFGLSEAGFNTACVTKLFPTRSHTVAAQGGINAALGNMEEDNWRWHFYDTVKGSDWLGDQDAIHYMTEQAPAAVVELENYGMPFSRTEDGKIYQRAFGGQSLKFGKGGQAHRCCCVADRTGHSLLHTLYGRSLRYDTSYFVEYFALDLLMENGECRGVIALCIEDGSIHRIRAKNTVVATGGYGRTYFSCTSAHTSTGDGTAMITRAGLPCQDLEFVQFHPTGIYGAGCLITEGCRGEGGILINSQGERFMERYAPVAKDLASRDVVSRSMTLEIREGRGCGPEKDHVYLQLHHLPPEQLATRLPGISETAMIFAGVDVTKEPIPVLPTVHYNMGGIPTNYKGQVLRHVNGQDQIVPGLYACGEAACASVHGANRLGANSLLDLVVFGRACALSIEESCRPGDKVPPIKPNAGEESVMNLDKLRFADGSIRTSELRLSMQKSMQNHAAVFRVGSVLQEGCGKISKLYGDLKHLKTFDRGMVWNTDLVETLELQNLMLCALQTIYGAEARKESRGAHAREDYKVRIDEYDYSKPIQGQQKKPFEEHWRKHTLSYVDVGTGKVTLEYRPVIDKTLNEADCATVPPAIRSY
# Results are given in words; binding and its absence hold for the method and conditions named. Binding seen in cells or lysates may run through a third protein.
# Target: Mitochondrial Coxiella effector protein C (MceC, CBU1425) with C-terminal 3XFLAG (Coxiella burnetii) (UniProt Q83BS7)
# Assay: co-IP
substance,measurement,value
SDHA (from UniProt P31040 43-664),binding,no binding
